Data taken from PubChem BioAssay AID2685 (National Center for Advancing Translational Sciences (NCATS), 2010).
The other results are listed elsewhere or left out. The main result of the screen is listed elsewhere. These columns were measured beside it and carry no call. The list favours compounds with an active or inconclusive main result. The note in brackets gives the kind of curve behind each potency; many fits are weak.

Assay: qHTS Assay for Lipid Storage Modulators in Drosophila S3 Cells;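 for cell number change: cells counted by Cell Tracker Red CMTPX staining in the red channel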
Conditions: BODIPY lipid droplet fluorescence, 18-24 h; for cell number change: measured here: cell count max response, cells fed with added oleic acid
In short: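 Drosophila S3 cells loaded with oleic acid (400 uM, as added) and compounds at several concentrations; lipid droplets imaged by 488-nm laser-scanning cytometry, 500–530 nm intensity and object ratio to cell channel. Percent activity normalized to 20 uM Triacsin C.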

[1] = measured here: cell number channel AC50, cells fed with added oleic acid
[2] = measured here: lipid fluorescence (Fed channel) AC50, cells fed with added oleic acid

SMILES | cell number change | AC50 [1] | AC50 [2]
ON(Cc1c(F)cccc1Cl)Cc1c(F)cccc1Cl | 48% | 14.6 µM [rising, single point] | 29.1 µM [rising, single point]
COc1nnc(-c2ccc(N3CCOCC3)c(NC(=O)c3ccco3)c2)c2ccccc12 |  |  | 0.731 µM [rising, full curve]
Cc1ccc(-n2sc3ccccc3c2=O)cc1 | -66.2% | 3.26 µM [falling, full curve] | 3.26 µM [falling, full curve]
O=C(Nc1ccccc1Cc1ccccc1)C1CC(=O)N(c2ccc3c(c2)OCCO3)C1 (configuration not stated) |  |  | 18.4 µM [rising, partial curve]
O=C(Oc1ccc(Cl)cc1)c1ccc2nccnc2c1 | -66.3% | 29.1 µM [falling, single point] | 29.1 µM [falling, single point]
O=C(NCC#CCOCc1ccccc1)c1ccccc1 | -7.08% |  | 6.51 µM [rising, single point]
Cc1ccc(S(=O)(=O)CCN2CCC(O)(c3ccccc3)CC2)cc1 | -14.8% |  | 
O=C(CSc1nnc(COc2cccc3ccccc23)o1)N1c2ccccc2CCc2ccccc21 | 2.74% |  | 2.06 µM [rising, partial curve]
CCCCc1nnc(NC(=O)Cc2ccc(S(=O)(=O)N3CCOCC3)s2)s1 | -6.31% |  | 2.91 µM [rising, partial curve]
CC(C)(C)c1ccc(C(=O)OCC(=O)NCc2ccco2)cc1 | -2.04% |  | 23.1 µM [falling, single point]
CCOCc1c(C(=O)OCC(=O)/C(C#N)=C(\C)N)oc2ccccc12 | -25.4% |  | 10.3 µM [falling, partial curve]
Cc1cnc(C(=O)Nc2ccc(C)c(S(=O)(=O)N3CCCCCC3)c2)cn1 | 0.402% | 1.84 µM [rising, partial curve] | 
COc1ccc(C2=NN3C(C2)c2ccccc2OC32C(=O)N(C)c3ccccc32)cc1 (configuration not stated) |  |  | 0.82 µM [rising, single point]
COC(=O)c1ccccc1NC(=O)Nc1cc(C(C)(C)C)on1 | 14.4% | 0.0058 µM [rising, full curve, poor fit] | 
O=C(c1ccccc1)N1CCCC(C(=O)N2CCCCCC2)C1 (configuration not stated) | 4.95% | 4.61 µM [falling, single point] | 
Cc1cc(S(=O)(=O)N2CCOCC2)ccc1OCC(=O)Nc1ccc(F)cc1 | 4.58% |  | 1.3 µM [falling, single point]
Cc1noc(C)c1C(=O)NCCc1c(C)[nH]c2ccccc12 |  | 6.51 µM [rising, single point] | 
CN1CCN(CC(=O)Nc2cc(N(C)C)nc3ccccc23)CC1 | -11.8% | 0.461 µM [rising, full curve, poor fit] | 1.3 µM [rising, full curve, poor fit]
COc1ccc(NCc2nnc(SCC(=O)Nc3ccccc3)n2C)cc1 | -0.284% | 0.231 µM [falling, full curve, poor fit] | 0.116 µM [falling, full curve, poor fit]
COc1ccc(C)cc1-n1nnnc1SCC(=O)NC1CC1 | 12.8% |  | 0.58 µM [rising, single point]
CC1(C)NC(=O)N(CC(O)CN(c2cccc([N+](=O)[O-])c2)S(=O)(=O)c2ccccc2)C1=O (configuration not stated) | 19.2% |  | 2.91 µM [rising, partial curve]
Cc1nnc(NC(=O)CSc2nc3[nH]ncc3c(=O)[nH]2)s1 | -13.4% |  | 8.2 µM [falling, partial curve]
O=C1CCc2cc(S(=O)(=O)Nc3ccc(F)cc3)ccc2N1 | -19.6% |  | 2.91 µM [falling, single point]
CC(=O)Nc1ccc(NC(=O)c2cc(C3CC3)nc3c2cnn3C(C)C)cc1 | 22.1% |  | 
COc1ccccc1N1CCN(C(=O)CSc2nc3ncnc(N)c3[nH]2)CC1 | 13.5% |  | 16.4 µM [rising, partial curve]
CCOC(=O)C1CCN(C(=O)c2ccc3nc(-c4ccc(OC)cc4)c(-c4ccc(OC)cc4)nc3c2)CC1 | -23.1% |  | 
COC(=O)CC1C(=O)NCCN1C(=O)c1sc2ccccc2c1Cl (configuration not stated) | -6.88% |  | 0.13 µM [falling, full curve, poor fit]
O=C(COC(=O)c1ccc(O)cc1O)NC12CC3CC(CC(C3)C1)C2 | -54.1% | 25.9 µM [falling, partial curve] | 23.1 µM [falling, partial curve, poor fit]
O=C(O)CCC(=O)N1CCc2c([nH]c3ccccc23)C1C(F)(F)F (configuration not stated) | 9.08% |  | 0.00517 µM [rising, full curve, poor fit]

Three entries from above, arranged by molecular weight, rising.
SMILES | cell number change | AC50 [1] | AC50 [2]
O=C(Oc1ccc(Cl)cc1)c1ccc2nccnc2c1 | -66.3% | 29.1 µM [falling, single point] | 29.1 µM [falling, single point]
O=C(c1ccccc1)N1CCCC(C(=O)N2CCCCCC2)C1 (configuration not stated) | 4.95% | 4.61 µM [falling, single point] | 
O=C(CSc1nnc(COc2cccc3ccccc23)o1)N1c2ccccc2CCc2ccccc21 | 2.74% |  | 2.06 µM [rising, partial curve]
